{"source": "patent US20040009273A1", "about": "“Method for the long-term preservation of meat and the meat process thereby” (priority 1996, published 2004)", "test": "CO diffusion from meat surface into the core during preservation", "settings": "nine pound calf meat piece, 5° C.", "data": [{"smiles": "[C-]#[O+]", "note": "[CO, carbon monoxide]", "values": [{"measurement": "diffusion of CO from the surface to the core", "setting": "ten days, cut in the middle of the sample", "value": "nearly complete diffusion or saturation"}, {"measurement": "meat radius (from surface to core) changed in color from dark to bright red", "setting": "100% CO about 1.1 atmosphere, after three days", "value": "About 30%"}]}]}
